The assay deals with FLAG-tagged full-length OPTN-IVD-NEMO (human) (UniProt Q9Y6K9). Description: cross-linking; disulfide-bonded dimers: lysates (non-ionic detergent) of transfected 293T NEMO KO cells in SDS sample buffer without β-mercaptoethanol, not boiled, SDS-PAGE, anti-NEMO Western blot.

Chains of the proteins cited; added tags and fusions are not shown. Lines headed by an entry give the natural chain unless they say otherwise; changes in a name come on top. A line that says so, or that is headed by a name, gives the form on record, which may keep a tag or linker.
FLAG-tagged full-length OPTN-IVD-NEMO (Q9Y6K9, form named): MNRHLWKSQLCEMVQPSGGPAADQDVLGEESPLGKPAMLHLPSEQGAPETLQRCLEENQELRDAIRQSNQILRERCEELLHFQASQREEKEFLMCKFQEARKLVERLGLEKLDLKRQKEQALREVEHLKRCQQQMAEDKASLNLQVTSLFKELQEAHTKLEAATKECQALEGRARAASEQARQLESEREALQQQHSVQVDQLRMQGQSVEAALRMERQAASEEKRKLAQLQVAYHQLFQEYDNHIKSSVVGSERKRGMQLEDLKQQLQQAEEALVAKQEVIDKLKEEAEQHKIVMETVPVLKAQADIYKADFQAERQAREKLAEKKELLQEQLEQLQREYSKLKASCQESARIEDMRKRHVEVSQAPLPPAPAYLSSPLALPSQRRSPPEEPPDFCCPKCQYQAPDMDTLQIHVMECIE

These are yes or no findings as the source states them, for the method shown. Binding seen in cells or lysates may run through a third protein. Some results given as binding are weak or reduced against the parent protein; the word gives no strength.

Turning to “FLAG-tagged full-length OPTN-IVD-NEMO (from UniProt Q9Y6K9 1-419)”, the binding entry is recorded as “binds”.

The record behind these values is article PMC10694592.
